The list shows a part of the results. Repeats are few or missing, and single values can be far off.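 Cells were imaged in 1,536-well plates, and nuclei stained with an antibody against cleaved PARP were counted against all DNA-stained nuclei to give the apoptosis fraction. Screening doses were chosen to leave most cells alive, and resting and induced cleaved-PARP levels differ strongly between cell lines.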
Tests used:
Assay in all cases: cleaved PARP positive nuclei fraction relative to DMSO control; melanoma cells; higher = more apoptosis
Details in all cases: library dose: low library concentration; 72 h
MZ2-MEL = tested on: MZ2-MEL
MeWo = tested on: MeWo
RPMI7951 = tested on: RPMI7951
RVH-421 = tested on: RVH-421
SkMel28 = tested on: SkMel28
SkMel2 = tested on: SkMel2
SkMel30 = tested on: SkMel30
UACC62 = tested on: UACC62
WM115 = tested on: WM115
WM1716 = tested on: WM1716
WM1745 = tested on: WM1745
WM3526 = tested on: WM3526
WM3619 = tested on: WM3619
WM451Lu = tested on: WM451Lu

Row | SMILES | cleaved PARP positive nuclei fraction (MZ2-MEL) | cleaved PARP positive nuclei fraction (MeWo) | cleaved PARP positive nuclei fraction (RPMI7951) | cleaved PARP positive nuclei fraction (RVH-421) | cleaved PARP positive nuclei fraction (SkMel28) | cleaved PARP positive nuclei fraction (SkMel2) | cleaved PARP positive nuclei fraction (SkMel30) | cleaved PARP positive nuclei fraction (UACC62) | cleaved PARP positive nuclei fraction (WM115) | cleaved PARP positive nuclei fraction (WM1716) | cleaved PARP positive nuclei fraction (WM1745) | cleaved PARP positive nuclei fraction (WM3526) | cleaved PARP positive nuclei fraction (WM3619) | cleaved PARP positive nuclei fraction (WM451Lu)
1 | C=C(c1ccc(C(=O)O)cc1)c1cc2c(cc1C)C(C)(C)CCC2(C)C [Bexarotene] + COc1ccc(Cl)c(Nc2nc3ccccc3nc2NS(=O)(=O)c2cccc(NC(=O)C(C)(C)N)c2)c1 [XL147] (first compound 2 µM, partner dose 0.8 µM) | 73.5% | 132% | 55.8% | 81.1% | 116% | 139% | 199% | 58.1% | 102% | 218% | 1780% | 59.7% | 106% | 121%
2 | O=C(O)c1ccc2c(c1)nc(Nc1cccc(Cl)c1)c1ccncc12 + COc1ccc(Cl)c(Nc2nc3ccccc3nc2NS(=O)(=O)c2cccc(NC(=O)C(C)(C)N)c2)c1 [XL147] (first compound 0.4 µM, partner dose 0.8 µM) | 78.3% | 138% | 58.1% | 74.8% | 69.8% | 101% | 34.3% | 165% | 153% | 155% | 123% | 96.7% | 94.3% | 95.9%
3 | Cc1cc(Nc2cc(N3CCN(C)CC3)nc(/C=C/c3ccccc3)n2)n[nH]1 + C[C@]1(c2nc3c(C(N)=O)cccc3[nH]2)CCCN1 [Veliparib] (first compound 0.04 µM, partner dose 1.4 µM) | 87.7% | 144% | 96.2% | 92.2% | 47.5% | 94.6% | 88% | 145% | 96.1% | 145% | 86.7% | 53.9% | 73% | 103%
4 | Nc1ccn([C@@H]2O[C@H](CO)[C@@H](O)C2(F)F)c(=O)n1 [gemcitabine] + Clc1ccc(Nc2nnc(Cc3ccncc3)c3ccccc23)cc1 [vatalanib] (first compound 0.0004 µM, partner dose 2 µM) | 39.5% | 81.8% | 122% | 122% | 97.1% | 193% | 156% | 49.7% | 213% | 94.3% | 155% | 63.1% | 177% | 41%
5 | CC(C)C[C@H](NC(=O)[C@H](Cc1ccccc1)NC(=O)c1cnccn1)B(O)O [Bortezomib] + O=C(O)c1ccc2c(c1)nc(Nc1cccc(Cl)c1)c1ccncc12 [CX4945] (first compound 0.001 µM, partner dose 0.4 µM) | 254% | 327% | 212% | 239% | 40.6% | 30.4% | 126% | 279% | 213% | 474% | 143% | 46.7% | 691% | 213%
6 | CC(C)C[C@H](NC(=O)[C@H](Cc1ccccc1)NC(=O)c1cnccn1)B(O)O [Bortezomib] + Nc1ccn([C@@H]2O[C@H](CO)[C@@H](O)C2(F)F)c(=O)n1 [gemcitabine] (first compound 0.001 µM, partner dose 0.0004 µM) | 185% | 132% | 56.5% | 364% | 117% | 115% | 139% | 133% | 63.8% | 522% | 145% | 125% | 577% | 64.8%
7 | CO[C@H]1C[C@@H]2CC[C@@H](C)[C@@](O)(O2)C(=O)C(=O)N2CCCC[C@H]2C(=O)O[C@H]([C@H](C)C[C@@H]2CC[C@@H](OCCO)[C@H](OC)C2)CC(=O)[C@H](C)/C=C(\C)[C@@H](O)[C@@H](OC)C(=O)[C@H](C)C[C@H](C)/C=C/C=C/C=C/1C [everolimus] + CS(=O)(=O)CCNCc1ccc(-c2ccc3ncnc(Nc4ccc(OCc5cccc(F)c5)c(Cl)c4)c3c2)o1 [lapatinib] (first compound 0.02 µM, partner dose 0.8 µM) | 239% | 80.4% | 206% | 268% | 1050% |  | 105% | 551% | 206% | 113% | 110% | 382% | 105% | 119%
8 | CC(C)C[C@H](NC(=O)[C@H](Cc1ccccc1)NC(=O)c1cnccn1)B(O)O [Bortezomib] + Nc1ncn([C@H]2C[C@H](O)[C@@H](CO)O2)c(=O)n1 [decitabine] (first compound 0.001 µM, partner dose 0.1 µM) | 350% | 112% | 518% | 343% | 45.3% |  | 64.9% | 171% | 85.7% | 1130% | 391% | 88.7% | 637% | 98.9%
9 | CO[C@H]1C[C@@H]2CC[C@@H](C)[C@@](O)(O2)C(=O)C(=O)N2CCCC[C@H]2C(=O)O[C@H]([C@H](C)C[C@@H]2CC[C@@H](OCCO)[C@H](OC)C2)CC(=O)[C@H](C)/C=C(\C)[C@@H](O)[C@@H](OC)C(=O)[C@H](C)C[C@H](C)/C=C/C=C/C=C/1C [everolimus] + OCc1c[nH]c2ccccc12 [Indole-3-carbinol] (first compound 0.02 µM, partner dose 0.8 µM) | 516% | 104% | 268% | 242% | 126% |  | 94.6% | 301% | 160% | 40.9% | 109% | 98.1% | 168% | 65.8%

Just cleaved PARP positive nuclei fraction (MeWo) (two entries from above):
Row | SMILES | cleaved PARP positive nuclei fraction (MeWo)
1 | C=C(c1ccc(C(=O)O)cc1)c1cc2c(cc1C)C(C)(C)CCC2(C)C [Bexarotene] + COc1ccc(Cl)c(Nc2nc3ccccc3nc2NS(=O)(=O)c2cccc(NC(=O)C(C)(C)N)c2)c1 [XL147] (first compound 2 µM, partner dose 0.8 µM) | 132%
6 | CC(C)C[C@H](NC(=O)[C@H](Cc1ccccc1)NC(=O)c1cnccn1)B(O)O [Bortezomib] + Nc1ccn([C@@H]2O[C@H](CO)[C@@H](O)C2(F)F)c(=O)n1 [gemcitabine] (first compound 0.001 µM, partner dose 0.0004 µM) | 132%
